PubChem BioAssay AID1259308 | NCATS, 2017

Test: 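Candidate targets for better recombinant protein yield in mammalian cells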 (primary screen)
System: human HEK293 embryonic kidney cells stably expressing firefly luciferase (HEK-CMV-Luc2-Hygro)
Knock-down reagent: single siRNA against human genes, 0.8 pmol siRNA per well
Duration: 72 h
Read-out: 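Luciferase light (ONE-Glo) measured on one replicate plate set and viability (CellTiter-Glo) on the other, scaled to a negative control siRNA, with robust z-scores and luciferase per cell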
Scale: total luciferase, z-score: higher = more reporter protein produced
Hit rule: 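An siRNA counts as active if its total luciferase robust z-score exceeds 3; genes with two or more such siRNAs out of three were retested with fresh siRNAs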
Calls: active = raised luciferase; inactive = no rise
Here is an unselected part of about 59,000 reagents tested. About 1,510 of all reagents (2.6%) count as active. 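Calls use total luciferase alone and ignore viability, so some active siRNAs may act by altering cell number.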 Entries without a mark were called inactive. The numbers tell different reagents against one gene apart. Not all columns of the deposit are shown.

With SERPINA9 (GeneID 327657) #1, what was measured?
total luciferase, z-score: 1.95

For SERPINA9 (GeneID 327657) #2, what was measured?
total luciferase, z-score: 0.122

For SERPINA9 (GeneID 327657) #3, how do the results read?
total luciferase, z-score: 1.48

With TCAIM (GeneID 285343) #1, what does the deposit list?
total luciferase, z-score: 0.169

What did the screen give for TCAIM (GeneID 285343) #2?
total luciferase, z-score: 1.98

How did the screen score TCAIM (GeneID 285343) #3?
total luciferase, z-score: 2.49

With RPIA (GeneID 22934) #1, what was measured?
total luciferase, z-score: -0.401

What did the screen give for RPIA (GeneID 22934) #2?
total luciferase, z-score: 1.54

What is on record for RPIA (GeneID 22934) #3?
total luciferase, z-score: 0.493

3 entries from above, ordered by “total luciferase, z-score”, ascending.
SERPINA9 (GeneID 327657) #2 | total luciferase, z-score = 0.122
TCAIM (GeneID 285343) #1 | total luciferase, z-score = 0.169
SERPINA9 (GeneID 327657) #3 | total luciferase, z-score = 1.48

Continued.
With NCOA2 (GeneID 10499) #1, what does the deposit list?
total luciferase, z-score: -0.319

With NCOA2 (GeneID 10499) #2, what was measured?
total luciferase, z-score: -0.192

What is on record for NCOA2 (GeneID 10499) #3?
total luciferase, z-score: -0.639

What did the screen give for HADHA (GeneID 3030) #1?
total luciferase, z-score: -0.218

Which result is listed for HADHA (GeneID 3030) #2?
total luciferase, z-score: -0.0106

For HADHA (GeneID 3030) #3, what was measured?
total luciferase, z-score: -1.66

For LIMS1 (GeneID 3987) #1, what was measured?
total luciferase, z-score: 1.5

How did the screen score LIMS1 (GeneID 3987) #2?
total luciferase, z-score: -1.21

What is on record for LIMS1 (GeneID 3987) #3?
total luciferase, z-score: -1.42

With CST9LP1 (GeneID 128820) #1, what was measured?
total luciferase, z-score: -1.41

For CST9LP1 (GeneID 128820) #2, how do the results read?
total luciferase, z-score: 0.482

What is on record for CST9LP1 (GeneID 128820) #3?
total luciferase, z-score: 0.0531
